Taken from: PubChem BioAssay AID1259424 (University of Nebraska Medical Center, 2018)
Aim: 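Seek colon cancer survival genes behaving like KSR1, using a six-gene signature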 (primary screen). Cells: human HCT116 colon cancer cells. Knock-down reagent: siRNA pool against human genes, 50 nM. Measured: 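Log2 levels of six mRNAs (branched-DNA multiplex), adjusted by two reference genes and the non-targeting median, then scored against the average KSR1 knockdown pattern as Pearson r and euclidean distance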. Direction: mean correlation with KSR1 profile and KSR1 correlation: higher = expression change more like KSR1 knockdown; mean distance from KSR1 profile: higher = expression change less like KSR1 knockdown.
The whole screen tested about 14,000 reagents; shown is a random part of them. 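Higher correlation or smaller distance means closer resemblance to KSR1 loss; control wells, including KSR1 knockdowns, recur on many plates.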 Further read-outs or replicates are left out here. Reagent sequences are not shown. The record does not give: the time to read-out.

no.	gene	mean correlation with KSR1 profile	mean distance from KSR1 profile	KSR1 correlation, replicate 1
1	SPDEF	0.559	4.52	0.486
2	E2F3	-0.366	1.8	-0.348
3	SNRPD2	-0.367	2.61	-0.324
4	TRAK1	-0.0555	3.73	0.0169
5	CCDC183	0.885	1.81	0.829
6	SLC2A8	0.601	1.24	0.56
7	PAIP2	0.942	1.75	0.886
8	KCNJ5	0.418	3.02	0.386
9	FRRS1L	-0.0629	3.62	0.111
10	CXCL12	0.288	2.36	0.187
11	ZNF232	0.0563	3.48	-0.0713
12	LRRC8E	0.286	1.56	0.176
13	EGR2	-0.28	6.53	-0.0795
14	AMY2A	-0.366	1.87	-0.225
15	SEC14L5	0.563	1.89	0.111
16	PTGS2	0.394	0.941	0.536
17	RGS5	0.711	1.61	0.781
18	LSM3	-0.274	3.07	-0.652
19	PRDM14	0.672	2.27	0.395
20	ULK3	0.623	1	0.753
21	CLOCK	-0.355	2.46	-0.36
22	GSK3B	0.782	1.32	0.672
23	BAG4	-0.463	1.84	-0.585
24	TH	0.821	1.83	0.823
25	VWF	-0.0513	3	0.0449
26	PVALB	-0.258	2.6	-0.149
27	THAP2	0.852	1.05	0.672
28	RTN1	-0.301	2.42	-0.28
29	HAND2	0.0501	1.66	0.0118
30	UCP2	-0.167	1.55	-0.747
31	GTF3C4	-0.372	1.62	-0.259
32	RAB2B	-0.169	2.61	-0.011
33	CDK5RAP1	0.638	1.86	0.844
34	TRIM7	0.0794	2.36	0.00542
35	CAMK2B	-0.79	2.41	-0.394
36	USP34	-0.791	1.64	-0.552
37	MACROH2A1	0.339	1.21	0.381
38	ASAH1	-0.432	4.56	-0.371
39	GUCY2D	0.131	2.2	0.0437
40	CA4	-0.48	3.13	-0.645
41	SF3B6	-0.55	3.38	-0.443
42	PHACTR4	-0.169	2.89	-0.303
43	CUTALP	-0.156	3.61	-0.278
44	DDX5	-0.351	2.91	-0.379
45	ZZZ3	0.489	2.07	0.449
46	ARID3A	-0.922	3.86	-0.839
47	SPHAR (retired record)	0.0993	2.41	0.0051
48	SAR1A	0.232	1.93	0.282
49	MLYCD	0.0612	1.84	-0.0375
50	AP4E1	0.382	2.16	0.336
51	IL18BP	0.119	1.41	0.0836
52	PRMT8	0.156	2.21	0.241
53	PYCR2	0.0299	2	0.00746
54	BIRC8	-0.224	3.7	-0.246
55	NEU2	0.376	1.8	0.387
56	WDR5B	0.948	1.1	0.932
57	SLC25A1	-0.574	1.66	-0.525
58	CST5	-0.0072	3.35	0.225
59	PUS7	-0.196	2.75	-0.218
60	PRLH	-0.339	2.91	-0.359
61	RAB7A	-0.451	1.87	-0.304
62	TRIAP1	-0.0871	2.34	0.112
63	EML2	0.495	1.87	0.829

An excerpt from above, reduced to “mean correlation with KSR1 profile”:
TRAK1 = -0.0555
CCDC183 = 0.885
SLC2A8 = 0.601
PAIP2 = 0.942
KCNJ5 = 0.418
FRRS1L = -0.0629
CXCL12 = 0.288
ZNF232 = 0.0563
LRRC8E = 0.286
